Results are given in words; binding and its absence hold for the method and conditions named. Binding seen in cells or lysates may run through a third protein. Where a sequence is shown, tags or fusion partners need not be part of it.

The assay addresses MAVS without the transmembrane domain (TM). As to the kind of experiment: co-IP; […] antibody and Protein G beads, 4 °C, 5 h; immunoblot.

B1: NLK (Nemo-like kinase), transfected, tag not stated (enzyme, UniProt Q9UBE8 1-527)
chain: MSLCGARANAKMMAAYNGGTSAAAAGHHHHHHHHLPHLPPPHLHHHHHPQHHLHPGSAAAVHPVQQHTSSAAAAAAAAAAAAAMLNPGQQQPYFPSPAPGQAPGPAAAAPAQVQAAAAATVKAHHHQHSHHPQQQLDIEPDRPIGYGAFGVVWSVTDPRDGKRVALKKMPNVFQNLVSCKRVFRELKMLCFFKHDNVLSALDILQPPHIDYFEEIYVVTELMQSDLHKIIVSPQPLSSDHVKVFLYQILRGLKYLHSAGILHRDIKPGNLLVNSNCVLKICDFGLARVEELDESRHMTQEVVTQYYRAPEILMGSRHYSNAIDIWSVGCIFAELLGRRILFQAQSPIQQLDLITDLLGTPSLEAMRTACEGAKAHILRGPHKQPSLPVLYTLSSQATHEAVHLLCRMLVFDPSKRISAKDALAHPYLDEGRLRYHTCMCKCCFSTSTGRVYTSDFEPVTNPKFDDTFEKNLSSVRQVKEIIHQFILEQQKGNRVPLCINPQSAAFKSFISSTVAQPSEMPPSPLVWE
Turning to B1, the binding result was “no binding”.
